Reference: article PMC5401885, “Isoprenoid Pyrophosphate-Dependent Transcriptional Regulation of Carotenogenesis in Corynebacterium glutamicum” (Frontiers in Microbiology, 2017)

Target: T1, CrtR (His-tagged) (Corynebacterium glutamicum ATCC 13032) (UniProt Q8NSP1)
T1 sequence (looked up): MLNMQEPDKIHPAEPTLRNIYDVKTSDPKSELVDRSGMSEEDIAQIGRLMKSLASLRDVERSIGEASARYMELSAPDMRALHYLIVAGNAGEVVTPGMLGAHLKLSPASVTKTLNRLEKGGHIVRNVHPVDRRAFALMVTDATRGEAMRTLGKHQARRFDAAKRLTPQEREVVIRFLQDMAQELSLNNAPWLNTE
Assay: EMSA
Conditions: 30-fold molar excess CrtR, 50 mM Tris-HCl pH 7.5, 10% glycerol, 50 mM KCl, 10 mM MgCl2, 0.5 mM EDTA, 20 uL, 90 ng DNA, 30 min at room temperature, 6% DNA retardation gel, recombinant protein, residues 1-195, protein details: N-terminal decahistidine (pET16b), not removed, label: none (ethidium bromide stain), probe letters rebuilt from the primers and the genome

Measured: binding result

ATTCAGCATAGTAATCACCTTTTTCTACAAAGTCAGATAAAGTTTATTTTTAAAAATATTAACTCATGGGATACTATAAATTTCTTGTAGGCACATTATTTTTATGGACCCAAATTCACACTTTCTGTACTTCATCAAAATAAAGCGCCATATACAACGATTGGGAATTTTTGCGAGATAACTGGCCGTGTGATACTCGA (double strand) [fragment A (full crtE-crtR intergenic region)]
binds more weakly: 50 uM GGPP | DMAPP (5-fold higher concentration than GGPP) | FPP (5-fold higher concentration than GGPP) | GPP (5-fold higher concentration than GGPP) | IPP (5-fold higher concentration than GGPP)

For at least one entry, the source does not settle the construct or the ends of the probe. A weaker result is weaker than the reference pair of the same experiment. Protein sequences can lack the tags named with them.
